Laboratory results taken from patent US6133313A, “Insecticidal avocadofurans and triolein” (The Regents of the University of California, priority 1998, dated 2000).

Test system: neonate S. exigua
Assay: individual toxicity of avocadofurans and triolein in artificial diet
Set-up: species or system Spodoptera exigua
Settings: in vivo
Method: In this study, individual activity of avocadofurans was investigated quantitatively. For this purpose, eight concentrations of the avocadofurans (1) and (4) and triolein (8) were tested. Results are seen in FIG. 6.
Following pilot studies, eight concentrations of each were tested: 0, 0.5, 1, 1.5, 2, 2.5, 3, and 3.5 μmoles g^~1 diet. Also, five concentrations of triolein were tested: 0; 1,000; 2,000; 3,000; and 4,000 μg g^~1 diet. Because triolein was not compared to a structurally similar compound, a more standard dietary formulation of μg g-^1 was used rather than ^~ moles g^-1 in all triolein-treated bioassays.
Treated and control diet were prepared as described above. For each concentration the compounds were dissolved in 10 ml of Tween solution and mixed using an ultrasonic homogenizer. Untreated diet was added to make a total of 100 g and then vortexed for 3 mm. Control diet was prepared by mixing 10 ml of the Tween solution with 90 g of artificial diet to produce a final weight of 100 g. Control and treated diets were poured into 30 ml plastic cups. One neonate was placed in each cup and cups were held in an incubator. Fifteen larvae were tested at each concentration, and assays were replicated 4 times (total of 60 larvae/treatment). For each diet treatment, 9-d larval instar and weight, pupal weights, times to pupation, and larval mortality were recorded.
EC (effective concentration) values were calculated by subtracting the mean larval weight for each treatment from the mean weight of the controls, and dividing by the mean weight of the controls. LC (lethal concentration) values were obtained using probit analysis as described in Probit Analysis (1971) Cambridge University Press, Cambridge, UK. GI (growth index) and RGI (relative growth index) values were calculated as described in J. Chem. Ecol., 19:1109 (1993), but using an imax of 3 (the stage attained by most control larvae after 7 d). Statistical comparisons were conducted using SuperAnova Abacus Concept Inc., Berkeley, Calif. (1989).

Row | Structure (SMILES) | Slope ± SE
1 | CCCCCCCCCCCCCCCCCc1ccco1 [2-(heptadecyl)furan (4), 2-(heptadecyl)furan] | 2.132 ± 0.431
2 | CCCCCCCCCCCCCCCc1ccco1 [2-(pentadecyl)furan (1), 2-(pentadecyl)furan] | 6.523 ± 0.817
3 | CCCCCCCC/C=C\CCCCCCCC(=O)OCC(COC(=O)CCCCCCC/C=C\CCCCCCCC)OC(=O)CCCCCCC/C=C\CCCCCCCC [Triolein (8), triolein] | 2.385 ± 0.555
